Measured data: PubChem BioAssay AID743121 (NCATS, 2013)
Shown is an unselected part of about 26,000 deposited reagents. 167 of them (0.63%) count as active. 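Calls are per gene from RSA p-values that are not deposited; an individual active-marked siRNA can sensitise only weakly.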 The numbers tell different reagents against one gene apart. Reagent sequences are not shown.

- Purpose: 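Knock-downs that sensitise breast cancer cells to camptothecin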 (primary screen)
- Cells: MDA-MB-231 cells, a human breast cancer line
- Reagents: single siRNA against human genes, 20 nM siRNA (0.8 pmol per well)
- Duration: 120 h (drug added 48 h after transfection, read 72 h later)
- Conditions: camptothecin 20 nM (about EC30) for 72 h; vehicle 0.1% DMSO in parallel plates
- Read-out: 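Cell viability by ATP luminescence (CellTiter-Glo) as % of non-targeting siRNA wells, and the log2 ratio of viability without drug over viability with camptothecin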
- Reading the numbers: log2 vehicle/camptothecin viability: higher = stronger sensitisation to camptothecin; viability with camptothecin and viability without drug: higher = more viable cells
- Hit rule: 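Active genes have an RSA gene-level p-value below 0.001, computed from the ratios of their separate siRNAs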

gene symbol	reagent	log2 vehicle/camptothecin viability	viability with camptothecin (% of control)	viability without drug (% of control)	outcome
CCNT2 (cyclin T2)	1	0.135	69.2	76	inactive
CCNT2 (cyclin T2)	2	0.0121	70.5	71.1	inactive
CCNT2 (cyclin T2)	3	-0.0722	18.4	17.5	inactive
STK38L (serine/threonine kinase 38 like)	1	-0.302	49.7	40.3	inactive
STK38L (serine/threonine kinase 38 like)	2	-0.0844	28.2	26.6	inactive
STK38L (serine/threonine kinase 38 like)	3	-0.288	92.5	75.8	inactive
STK38L (serine/threonine kinase 38 like)	4	0.112	37.9	40.9	inactive
PSEN2 (presenilin 2)	1	-0.125	110	101	inactive
PSEN2 (presenilin 2)	2	-0.146	31.3	28.3	inactive
PSEN2 (presenilin 2)	3	-0.105	49.1	45.6	inactive
PSEN2 (presenilin 2)	4	-0.363	92.3	71.7	inactive
PCSK2 (proprotein convertase subtilisin/kexin type 2)	1	0.0577	44.2	46	inactive
PCSK2 (proprotein convertase subtilisin/kexin type 2)	2	-0.298	61.1	49.7	inactive
PCSK2 (proprotein convertase subtilisin/kexin type 2)	3	-0.229	79.1	67.5	inactive
PCSK2 (proprotein convertase subtilisin/kexin type 2)	4	-0.559	83.3	56.6	inactive
DHRS4 (dehydrogenase/reductase 4)	1	-0.232	114	97.4	inactive
DHRS4 (dehydrogenase/reductase 4)	2	-0.4	78.3	59.4	inactive
DHRS4 (dehydrogenase/reductase 4)	3	0.416	53.1	70.8	inactive
DHRS4 (dehydrogenase/reductase 4)	4	-0.115	33.6	31	inactive
DHRS4 (dehydrogenase/reductase 4)	5	-0.638	93.4	60	inactive
PPP2CA (protein phosphatase 2 catalytic subunit alpha)	1	0.624	65.4	101	inactive
PPP2CA (protein phosphatase 2 catalytic subunit alpha)	2	0.423	77.3	104	inactive
PPP2CA (protein phosphatase 2 catalytic subunit alpha)	3	-0.101	69.2	64.5	inactive
PPP2CA (protein phosphatase 2 catalytic subunit alpha)	4	-0.136	69.2	63	inactive
PFKFB1 (6-phosphofructo-2-kinase/fructose-2,6-biphosphatase 1)	1	-0.0369	60	58.5	inactive
PFKFB1 (6-phosphofructo-2-kinase/fructose-2,6-biphosphatase 1)	2	-0.0686	65.9	62.9	inactive
PFKFB1 (6-phosphofructo-2-kinase/fructose-2,6-biphosphatase 1)	3	0.0992	83.2	89.1	inactive
PFKFB1 (6-phosphofructo-2-kinase/fructose-2,6-biphosphatase 1)	4	-0.177	49	43.3	inactive
CTSG (cathepsin G)	1	0.205	64.8	74.7	inactive
CTSG (cathepsin G)	2	0.207	35.6	41.1	inactive
CTSG (cathepsin G)	3	0.00795	83.3	83.8	inactive
CTSG (cathepsin G)	4	0.165	98.2	110	inactive
GABRA5 (gamma-aminobutyric acid type A receptor subunit alpha5)	1	-0.0731	90	85.6	inactive
GABRA5 (gamma-aminobutyric acid type A receptor subunit alpha5)	2	-0.21	124	107	inactive
GABRA5 (gamma-aminobutyric acid type A receptor subunit alpha5)	3	-0.0946	79.9	74.8	inactive
GABRA5 (gamma-aminobutyric acid type A receptor subunit alpha5)	4	-0.0362	96.5	94.1	inactive
ATP2B4 (ATPase plasma membrane Ca2+ transporting 4)	1	0.00302	26.4	26.4	inactive
ATP2B4 (ATPase plasma membrane Ca2+ transporting 4)	2	-0.288	77.6	63.5	inactive
ATP2B4 (ATPase plasma membrane Ca2+ transporting 4)	3	0.206	22.9	26.5	inactive
TFAP4 (transcription factor AP-4)	1	-0.142	105	95.4	inactive
TFAP4 (transcription factor AP-4)	2	-0.379	78	60	inactive
TFAP4 (transcription factor AP-4)	3	-0.44	86.7	63.9	inactive
TFAP4 (transcription factor AP-4)	4	-0.177	74.3	65.7	inactive
CHIC2 (cysteine rich hydrophobic domain 2)	1	0.0523	93.2	96.7	inactive
CHIC2 (cysteine rich hydrophobic domain 2)	2	-0.313	86.6	69.7	inactive
CHIC2 (cysteine rich hydrophobic domain 2)	3	0.0434	52.8	54.4	inactive
CHIC2 (cysteine rich hydrophobic domain 2)	4	-0.34	93.3	73.7	inactive
STK3 (serine/threonine kinase 3)	1	-0.0351	93.4	91.2	inactive
STK3 (serine/threonine kinase 3)	2	-0.475	66.6	47.9	inactive
STK3 (serine/threonine kinase 3)	3	-0.674	79.3	49.7	inactive
STK3 (serine/threonine kinase 3)	4	-0.31	109	87.8	inactive
GGCX (gamma-glutamyl carboxylase)	1	-0.0684	93.9	89.5	inactive
GGCX (gamma-glutamyl carboxylase)	2	-0.156	111	99.3	inactive
GGCX (gamma-glutamyl carboxylase)	3	-0.27	35.2	29.2	inactive
GGCX (gamma-glutamyl carboxylase)	4	-0.51	82	57.6	inactive
SLC6A3	1	-0.214	55	47.5	inactive
SLC6A3	2	-0.248	43.3	36.5	inactive
SLC6A3	3	-0.207	53.7	46.5	inactive
SLC6A3	4	0.133	15.3	16.8	inactive
PIKFYVE (phosphoinositide kinase, FYVE-type zinc finger containing)	1	-0.582	93.2	62.3	inactive
PIKFYVE (phosphoinositide kinase, FYVE-type zinc finger containing)	2	-0.209	82.6	71.4	inactive
PIKFYVE (phosphoinositide kinase, FYVE-type zinc finger containing)	3	-0.412	56.4	42.4	inactive
PIKFYVE (phosphoinositide kinase, FYVE-type zinc finger containing)	4	-0.18	82.7	73	inactive
E2F3 (E2F transcription factor 3)	1	-0.0676	96.8	92.4	inactive
E2F3 (E2F transcription factor 3)	2	-0.0447	91.9	89.1	inactive
E2F3 (E2F transcription factor 3)	3	0.0531	39.5	41	inactive
E2F3 (E2F transcription factor 3)	4	-0.0638	93.3	89.3	inactive
KCNQ3 (potassium voltage-gated channel subfamily Q member 3)	1	0.0653	83.4	87.2	inactive
KCNQ3 (potassium voltage-gated channel subfamily Q member 3)	2	-0.43	91.5	67.9	inactive
KCNQ3 (potassium voltage-gated channel subfamily Q member 3)	3	-0.266	95.4	79.3	inactive
KCNQ3 (potassium voltage-gated channel subfamily Q member 3)	4	-0.327	97.7	77.9	inactive
